No constants are given. Whether binding was seen depends on the method and setting. For some assays here: In cells and extracts the contact can be indirect. Some entries that bind do so weakly or less than the wild type. Blank lines part the entries; values can stand above or below the substance they belong to.
Legend:
[1] = target: Cortactin (on Protoarray protein array) (UniProt Q14247); test: peptide or protein array; protein arrays (Protoarray, ThermoFisher Scientific) probed with recombinant human p27; proteomic screen; both purified
[2] = target: Cortactin (endogenous, HeLa) (human (endogenous in HeLa)) (UniProt Q14247); test: co-IP; endogenous Cortactin immunoprecipitated with rabbit anti-Cortactin (H191) from HeLa or E6 MEF lysates, beads alone as control; for Arp2, c-Src and ERK1 HeLa cells transfected with empty vector or p27; 4°C for 4 hr
[3] = target: p27 (endogenous, HeLa) (human (endogenous in HeLa)) (UniProt P46527); test: co-IP; endogenous p27 immunoprecipitated with rabbit anti-p27 (C-19) from p27+/+ E6 MEFs (starved overnight, stimulated with growth medium) or HeLa cells (starved, stimulated with 100 ng/ml EGF) at the indicated times; Cortactin detected by immunoblot
[4] = target: PAK1 (endogenous, HeLa) (human (endogenous in HeLa)) (UniProt Q13153); test: co-IP; endogenous PAK1 immunoprecipitated with rabbit anti-PAK1 (N-20) from HeLa cells transfected with empty vector or p27, from p27+/+ and p27-/- E6 MEFs, and from p27+/+ E6 MEFs starved and stimulated with growth medium; Cortactin detected by immunoblot
[5] = target: Cortactin (endogenous, E6 MEFs) (mouse (endogenous in MEFs)) (UniProt Q60598); test: co-IP; endogenous Cortactin immunoprecipitated with rabbit anti-Cortactin (H191) from HeLa or E6 MEF lysates, beads alone as control; for Arp2, c-Src and ERK1 HeLa cells transfected with empty vector or p27; 4°C for 4 hr
[6] = target: p27 (endogenous, E6 MEFs) (mouse (endogenous in MEFs)) (UniProt P46414); test: co-IP; endogenous p27 immunoprecipitated with rabbit anti-p27 (C-19) from p27+/+ E6 MEFs (starved overnight, stimulated with growth medium) or HeLa cells (starved, stimulated with 100 ng/ml EGF) at the indicated times; Cortactin detected by immunoblot
[7] = target: PAK1 (endogenous, E6 MEFs) (mouse (endogenous in MEFs)) (UniProt O88643); test: co-IP; endogenous PAK1 immunoprecipitated with rabbit anti-PAK1 (N-20) from HeLa cells transfected with empty vector or p27, from p27+/+ and p27-/- E6 MEFs, and from p27+/+ E6 MEFs starved and stimulated with growth medium; Cortactin detected by immunoblot

Protein sequences, listed by entry. Tags and fused reporters are not part of them.
UniProt Q14247: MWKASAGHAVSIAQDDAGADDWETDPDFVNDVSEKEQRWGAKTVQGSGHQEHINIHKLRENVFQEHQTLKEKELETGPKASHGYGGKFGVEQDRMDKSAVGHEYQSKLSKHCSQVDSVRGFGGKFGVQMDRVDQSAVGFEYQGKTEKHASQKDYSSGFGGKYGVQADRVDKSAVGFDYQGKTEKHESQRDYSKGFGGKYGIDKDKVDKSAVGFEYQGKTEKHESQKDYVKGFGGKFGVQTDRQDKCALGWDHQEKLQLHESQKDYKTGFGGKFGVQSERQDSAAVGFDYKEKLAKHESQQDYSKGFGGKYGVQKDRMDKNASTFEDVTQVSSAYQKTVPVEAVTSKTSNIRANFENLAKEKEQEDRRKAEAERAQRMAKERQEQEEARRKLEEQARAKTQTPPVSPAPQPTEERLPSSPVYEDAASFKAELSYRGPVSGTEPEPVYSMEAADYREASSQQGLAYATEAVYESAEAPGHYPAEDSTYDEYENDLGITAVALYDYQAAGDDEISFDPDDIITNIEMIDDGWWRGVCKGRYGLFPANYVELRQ
UniProt P46527: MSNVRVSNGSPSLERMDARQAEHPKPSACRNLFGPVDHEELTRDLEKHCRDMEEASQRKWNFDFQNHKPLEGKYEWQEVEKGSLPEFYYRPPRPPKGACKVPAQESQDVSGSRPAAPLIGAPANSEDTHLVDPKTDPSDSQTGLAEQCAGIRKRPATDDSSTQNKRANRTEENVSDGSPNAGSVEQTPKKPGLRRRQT
UniProt Q13153: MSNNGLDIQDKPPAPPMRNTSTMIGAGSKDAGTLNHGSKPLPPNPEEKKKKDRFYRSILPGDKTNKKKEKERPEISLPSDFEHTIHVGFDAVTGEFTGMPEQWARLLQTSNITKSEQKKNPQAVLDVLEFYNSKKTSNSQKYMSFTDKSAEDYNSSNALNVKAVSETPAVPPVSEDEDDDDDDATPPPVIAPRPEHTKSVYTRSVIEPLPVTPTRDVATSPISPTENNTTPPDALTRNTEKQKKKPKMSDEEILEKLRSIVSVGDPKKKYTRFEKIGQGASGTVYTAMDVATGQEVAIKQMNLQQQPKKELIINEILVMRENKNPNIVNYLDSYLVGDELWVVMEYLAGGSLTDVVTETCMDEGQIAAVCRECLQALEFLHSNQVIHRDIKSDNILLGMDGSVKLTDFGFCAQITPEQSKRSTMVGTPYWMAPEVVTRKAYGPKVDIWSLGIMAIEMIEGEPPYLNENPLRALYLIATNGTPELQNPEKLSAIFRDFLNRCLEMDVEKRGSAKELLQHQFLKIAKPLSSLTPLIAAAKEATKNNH
UniProt Q60598: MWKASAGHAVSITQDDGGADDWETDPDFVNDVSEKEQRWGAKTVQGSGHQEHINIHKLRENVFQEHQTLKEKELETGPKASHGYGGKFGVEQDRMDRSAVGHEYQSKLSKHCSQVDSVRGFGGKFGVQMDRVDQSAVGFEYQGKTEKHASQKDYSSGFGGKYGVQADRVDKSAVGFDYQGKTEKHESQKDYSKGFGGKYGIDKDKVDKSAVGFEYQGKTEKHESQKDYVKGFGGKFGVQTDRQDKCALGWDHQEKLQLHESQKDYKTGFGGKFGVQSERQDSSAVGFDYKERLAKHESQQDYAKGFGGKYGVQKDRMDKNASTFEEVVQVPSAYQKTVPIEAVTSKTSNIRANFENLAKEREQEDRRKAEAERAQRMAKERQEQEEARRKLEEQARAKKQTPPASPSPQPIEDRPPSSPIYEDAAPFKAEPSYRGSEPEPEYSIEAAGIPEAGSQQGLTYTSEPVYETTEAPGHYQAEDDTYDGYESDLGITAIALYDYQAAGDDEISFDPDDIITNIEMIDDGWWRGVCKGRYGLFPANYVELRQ
UniProt P46414: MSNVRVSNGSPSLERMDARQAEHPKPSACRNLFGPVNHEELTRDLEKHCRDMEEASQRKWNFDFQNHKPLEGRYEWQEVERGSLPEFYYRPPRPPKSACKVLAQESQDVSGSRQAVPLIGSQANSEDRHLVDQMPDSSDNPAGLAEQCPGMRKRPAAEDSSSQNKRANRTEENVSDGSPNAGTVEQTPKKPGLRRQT
UniProt O88643: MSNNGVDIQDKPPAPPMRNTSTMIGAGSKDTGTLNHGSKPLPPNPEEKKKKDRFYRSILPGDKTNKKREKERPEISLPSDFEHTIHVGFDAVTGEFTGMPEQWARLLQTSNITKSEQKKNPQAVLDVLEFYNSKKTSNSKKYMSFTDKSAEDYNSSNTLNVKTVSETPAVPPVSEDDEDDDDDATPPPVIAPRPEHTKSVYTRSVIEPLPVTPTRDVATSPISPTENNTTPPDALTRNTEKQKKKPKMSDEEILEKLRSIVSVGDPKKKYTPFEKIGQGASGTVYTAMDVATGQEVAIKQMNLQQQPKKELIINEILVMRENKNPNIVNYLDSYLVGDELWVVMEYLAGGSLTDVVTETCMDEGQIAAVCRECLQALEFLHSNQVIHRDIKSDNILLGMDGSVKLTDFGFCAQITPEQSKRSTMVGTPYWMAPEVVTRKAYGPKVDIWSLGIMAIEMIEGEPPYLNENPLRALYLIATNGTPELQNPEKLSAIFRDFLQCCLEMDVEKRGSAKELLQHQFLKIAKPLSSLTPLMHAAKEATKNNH
UniProt P27361: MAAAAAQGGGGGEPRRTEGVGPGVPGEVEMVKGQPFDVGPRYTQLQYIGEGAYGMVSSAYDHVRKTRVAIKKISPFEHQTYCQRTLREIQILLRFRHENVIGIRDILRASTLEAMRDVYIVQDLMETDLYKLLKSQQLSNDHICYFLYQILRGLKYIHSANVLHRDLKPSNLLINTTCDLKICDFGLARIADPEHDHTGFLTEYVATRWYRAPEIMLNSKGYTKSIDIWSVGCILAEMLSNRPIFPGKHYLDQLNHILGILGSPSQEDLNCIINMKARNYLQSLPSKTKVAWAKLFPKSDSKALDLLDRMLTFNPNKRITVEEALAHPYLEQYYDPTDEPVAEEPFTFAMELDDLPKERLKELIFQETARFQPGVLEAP

Substance: ERK1 (endogenous, HeLa) (from UniProt P27361 1-379)
- binding [2]: binds

Substance: Cortactin (endogenous, HeLa) (from UniProt Q14247 1-550)
- binding [3]: binds
- binding [4]: binds

Substance: p27 (endogenous, HeLa) (from UniProt P46527 1-198)
- binding [2]: binds

Results, then the substance that gave them:

- binding [1]: binds
Substance: recombinant human p27 (from UniProt P46527 1-198)

- binding [5]: binds
Substance: p27 (endogenous, E6 MEFs) (from UniProt P46414 1-197)

- binding [6]: binds
- binding [7]: binds
Substance: Cortactin (endogenous, E6 MEFs) (from UniProt Q60598 1-546)

From paper PMC5388532
